Data reported in patent publication US20180147256A1, “MEANS AND METHODS FOR TREATING FACIOSCAPULOHUMERAL MUSCULAR DYSTROPHY (FSHD)” (ACADEMISCH ZIEKENHUIS LEIDEN H.O.D.N. LUMC, priority 2015, published 2018).
No constants are given. Whether binding was seen depends on the method and setting. In cells and extracts the contact can be indirect. Some entries that bind do so weakly or less than the wild type.

Amino acid sequences for entries named in this document (tags omitted). A change or cut given only in a name is not applied to a line headed by its entry. Residues count along the entry.
UniProt A6NHR9: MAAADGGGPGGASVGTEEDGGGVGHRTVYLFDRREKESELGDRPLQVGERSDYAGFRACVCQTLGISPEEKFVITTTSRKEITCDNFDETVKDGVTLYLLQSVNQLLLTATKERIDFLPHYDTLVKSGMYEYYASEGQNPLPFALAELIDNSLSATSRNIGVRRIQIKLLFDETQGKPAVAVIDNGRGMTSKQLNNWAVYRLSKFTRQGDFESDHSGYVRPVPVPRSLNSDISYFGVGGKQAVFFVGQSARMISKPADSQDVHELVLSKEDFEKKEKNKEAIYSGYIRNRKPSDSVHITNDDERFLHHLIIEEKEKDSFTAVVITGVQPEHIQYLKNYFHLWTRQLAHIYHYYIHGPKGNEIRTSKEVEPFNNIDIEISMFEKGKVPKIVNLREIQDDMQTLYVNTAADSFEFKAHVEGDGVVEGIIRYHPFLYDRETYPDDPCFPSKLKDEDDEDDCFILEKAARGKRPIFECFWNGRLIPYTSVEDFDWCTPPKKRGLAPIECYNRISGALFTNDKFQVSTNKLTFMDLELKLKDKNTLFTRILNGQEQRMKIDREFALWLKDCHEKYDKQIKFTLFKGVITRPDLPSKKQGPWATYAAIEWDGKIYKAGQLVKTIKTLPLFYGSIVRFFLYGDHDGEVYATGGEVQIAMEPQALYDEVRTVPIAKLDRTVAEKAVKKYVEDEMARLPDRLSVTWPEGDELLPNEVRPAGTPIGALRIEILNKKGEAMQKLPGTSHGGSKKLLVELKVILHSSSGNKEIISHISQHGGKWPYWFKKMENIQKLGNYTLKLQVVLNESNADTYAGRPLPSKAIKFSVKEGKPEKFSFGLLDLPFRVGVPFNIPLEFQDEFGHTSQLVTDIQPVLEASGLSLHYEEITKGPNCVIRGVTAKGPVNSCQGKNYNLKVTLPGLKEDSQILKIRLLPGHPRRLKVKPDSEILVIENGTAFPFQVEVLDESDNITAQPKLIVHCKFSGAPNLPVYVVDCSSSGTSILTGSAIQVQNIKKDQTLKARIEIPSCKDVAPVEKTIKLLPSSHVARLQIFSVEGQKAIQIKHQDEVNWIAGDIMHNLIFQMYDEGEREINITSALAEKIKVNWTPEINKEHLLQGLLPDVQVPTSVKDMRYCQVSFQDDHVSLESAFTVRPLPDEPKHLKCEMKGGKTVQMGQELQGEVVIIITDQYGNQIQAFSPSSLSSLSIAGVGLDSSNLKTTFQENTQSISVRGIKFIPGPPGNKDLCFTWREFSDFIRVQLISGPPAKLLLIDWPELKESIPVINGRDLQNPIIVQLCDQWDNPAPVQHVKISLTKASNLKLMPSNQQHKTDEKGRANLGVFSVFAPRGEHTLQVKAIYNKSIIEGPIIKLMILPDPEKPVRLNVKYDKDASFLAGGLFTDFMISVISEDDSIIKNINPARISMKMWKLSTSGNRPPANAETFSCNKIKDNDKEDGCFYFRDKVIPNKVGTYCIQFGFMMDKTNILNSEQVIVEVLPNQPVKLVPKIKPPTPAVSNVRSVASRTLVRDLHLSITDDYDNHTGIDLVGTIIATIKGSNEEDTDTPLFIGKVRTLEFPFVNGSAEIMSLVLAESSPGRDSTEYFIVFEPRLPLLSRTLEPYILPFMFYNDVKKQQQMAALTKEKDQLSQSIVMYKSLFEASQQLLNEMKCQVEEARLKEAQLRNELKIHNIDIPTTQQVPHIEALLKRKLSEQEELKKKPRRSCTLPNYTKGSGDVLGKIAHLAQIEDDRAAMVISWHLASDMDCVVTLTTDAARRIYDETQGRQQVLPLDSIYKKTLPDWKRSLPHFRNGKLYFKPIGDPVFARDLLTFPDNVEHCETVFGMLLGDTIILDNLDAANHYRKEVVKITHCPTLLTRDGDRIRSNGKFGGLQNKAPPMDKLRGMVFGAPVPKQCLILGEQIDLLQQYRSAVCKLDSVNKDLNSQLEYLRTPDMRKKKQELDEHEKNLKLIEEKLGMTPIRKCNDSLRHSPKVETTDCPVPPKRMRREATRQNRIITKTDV
UniProt P63165, residues 1-97: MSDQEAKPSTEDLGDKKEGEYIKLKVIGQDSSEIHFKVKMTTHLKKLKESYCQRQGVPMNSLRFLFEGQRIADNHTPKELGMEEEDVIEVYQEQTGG
UniProt P61956, residues 1-93: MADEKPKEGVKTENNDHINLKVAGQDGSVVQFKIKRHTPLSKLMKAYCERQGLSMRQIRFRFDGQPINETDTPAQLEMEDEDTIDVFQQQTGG

What was measured:
[1] = target: HA tagged SMCHD1 (wild-type), expressed in HeLa cells (human) (UniProt A6NHR9); assay: Ni-NTA pull-down of His10-SUMO from HeLa lysate, HA Western blot; covalent SUMO conjugate
[2] = target: HA tagged SMCHD1 (wild-type), expressed in HeLa cells (human) (UniProt A6NHR9); assay: Ni-NTA pull-down of His10-SUMO2 from HeLa lysate, HA Western blot; covalent SUMO conjugate
[3] = target: HA tagged SMCHD1 mutated at K2002 (lysine to arginine) (human) (UniProt A6NHR9); assay: as above

**Q.** How did the binding [1] turn out when “HIS10-SUMO1 (stably expressed in HeLa cells) (from UniProt P63165 1-97)” was run?
**A.** The binding was “binds”.

**Q.** Which binding [1] does the source give for “HIS10-SUMO2 (stably expressed in HeLa cells) (from UniProt P61956 1-93)” here?
**A.** The binding was “binds”.

**Q.** And the binding [2]?
**A.** Its binding is “binds”.

**Q.** And the binding [3]?
**A.** Its binding is “binds”.
